Assay results: PubChem BioAssay AID485364 (National Center for Advancing Translational Sciences (NCATS), 2010)
Among all 360,000 compounds or so, about 11,000 (3.1%) were called active. These results got no clear call from the source, so the numbers are uncertain. Calls follow the shape of the dose curve; as a rule, active = well fitted inhibition curve with a large enough effect; inconclusive = small, poorly fitted or top-dose-only effect; inactive = no such curve, though single readings can be large or run the other way. Some tests of the compounds listed are not included; inactive here does not mean inactive elsewhere.

molecular target: Schistosoma mansoni thioredoxin glutathione reductase (TGR) (UniProt Q962Y6); experiment: qHTS Assay for the Inhibitors of Schistosoma Mansoni Peroxiredoxins; conditions: purified TGR, DTNB reduction, TNB absorbance 405 nm; also: nearly all actives have a fitted effect of over 60% in size
From the text: Schistosomiasis is a major neglected tropical disease that currently affects over 200 million. It is caused by different species of flatworms, such as Schistosoma mansoni. Over the last century, drugs to treat the disease have evolved from potassium antimonyl tartrate, artemisinin, oxamniquine, to praziquantel, with praziquantel remaining the universally-used single drug of choice over the past three decades. However, transmission rates have changed little with praziquantel, and there is evidence for the development of drug resistant parasites. Because there is currently no suitable alternative therapy available, there is an urgent need to identify new targets and drugs for schistosomiasis treatment. […] Recently, a quantitative high-throughput screen of the NIH Molecular Libraries Small Molecule Repository (MLSMR, ~71K at the time of the screen in 2007) was performed using an assay that targeted both TGR and peroxiredoxin2 (Prx2, an H2O2-reducing enzymatic component of the S. mansoni redox "firewall") by following the decrease of NADPH fluorescence. […] In addition, the fluorescence assay was also subject to fluorescence interference from compound library members. […] The assay followed the reduction of 5, 5'-dithiobis (2-nitrobenzoic acid) (DTNB) (Ellman's reagent) by NADPH and measured the increase in absorbance at 412 nm of the reaction product, TNB. […]
Potency is read from the fitted curve at half-maximal effect.

Row | Compound | Potency
1 | COc1ccc(Br)c(C(=O)NCC2(N3CCCCC3)CCCCC2)c1 | inconclusive: 50.1 µM
